Percent effect of library compounds

Sequences of proteins named here, by UniProt entry; tags and fusion partners are left off. Residues count along the entry.
UniProt I6X8D2, whole entry: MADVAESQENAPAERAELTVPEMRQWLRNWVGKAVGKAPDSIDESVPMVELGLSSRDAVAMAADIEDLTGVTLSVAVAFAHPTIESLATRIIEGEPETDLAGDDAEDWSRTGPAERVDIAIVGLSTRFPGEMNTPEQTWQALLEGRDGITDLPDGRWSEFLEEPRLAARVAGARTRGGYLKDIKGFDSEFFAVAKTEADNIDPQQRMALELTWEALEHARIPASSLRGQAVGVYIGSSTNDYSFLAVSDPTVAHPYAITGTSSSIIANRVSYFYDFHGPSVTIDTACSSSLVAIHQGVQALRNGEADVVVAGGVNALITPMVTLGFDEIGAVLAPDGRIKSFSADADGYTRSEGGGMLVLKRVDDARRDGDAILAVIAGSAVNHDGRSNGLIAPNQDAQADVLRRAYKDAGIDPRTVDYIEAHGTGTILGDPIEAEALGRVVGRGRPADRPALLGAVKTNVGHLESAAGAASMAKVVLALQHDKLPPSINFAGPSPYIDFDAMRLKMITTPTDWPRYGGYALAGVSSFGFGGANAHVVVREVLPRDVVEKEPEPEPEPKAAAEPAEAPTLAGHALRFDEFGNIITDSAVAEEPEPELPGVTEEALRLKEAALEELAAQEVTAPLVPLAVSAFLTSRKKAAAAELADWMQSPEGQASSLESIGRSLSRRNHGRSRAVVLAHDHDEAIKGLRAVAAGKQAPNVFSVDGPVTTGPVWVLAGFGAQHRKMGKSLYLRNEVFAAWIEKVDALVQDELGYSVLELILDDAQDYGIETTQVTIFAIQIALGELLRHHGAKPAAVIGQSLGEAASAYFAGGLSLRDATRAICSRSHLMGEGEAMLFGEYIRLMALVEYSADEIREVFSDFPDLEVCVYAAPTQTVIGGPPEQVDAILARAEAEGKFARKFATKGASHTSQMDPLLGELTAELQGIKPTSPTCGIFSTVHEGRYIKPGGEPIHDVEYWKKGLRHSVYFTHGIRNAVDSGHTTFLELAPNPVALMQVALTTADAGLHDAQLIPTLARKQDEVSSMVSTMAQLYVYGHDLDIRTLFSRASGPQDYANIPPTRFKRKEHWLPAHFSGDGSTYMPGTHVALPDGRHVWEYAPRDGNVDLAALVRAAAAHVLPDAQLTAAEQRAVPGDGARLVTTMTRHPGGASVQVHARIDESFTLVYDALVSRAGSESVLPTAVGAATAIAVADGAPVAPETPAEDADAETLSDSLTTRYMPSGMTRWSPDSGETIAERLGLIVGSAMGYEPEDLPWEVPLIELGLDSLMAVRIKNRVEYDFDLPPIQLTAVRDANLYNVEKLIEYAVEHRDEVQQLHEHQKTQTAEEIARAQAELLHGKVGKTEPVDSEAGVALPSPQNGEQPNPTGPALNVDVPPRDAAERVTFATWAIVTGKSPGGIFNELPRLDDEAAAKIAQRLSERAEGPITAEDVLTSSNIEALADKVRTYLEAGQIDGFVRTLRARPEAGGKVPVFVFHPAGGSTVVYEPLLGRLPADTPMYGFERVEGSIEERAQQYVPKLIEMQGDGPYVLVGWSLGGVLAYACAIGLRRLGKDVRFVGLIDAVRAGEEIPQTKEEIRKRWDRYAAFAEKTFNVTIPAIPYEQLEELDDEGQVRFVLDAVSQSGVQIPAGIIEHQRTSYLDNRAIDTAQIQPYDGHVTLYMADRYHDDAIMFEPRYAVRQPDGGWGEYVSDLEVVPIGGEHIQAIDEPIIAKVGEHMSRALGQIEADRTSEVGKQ
UniProt P9WNZ1, whole entry: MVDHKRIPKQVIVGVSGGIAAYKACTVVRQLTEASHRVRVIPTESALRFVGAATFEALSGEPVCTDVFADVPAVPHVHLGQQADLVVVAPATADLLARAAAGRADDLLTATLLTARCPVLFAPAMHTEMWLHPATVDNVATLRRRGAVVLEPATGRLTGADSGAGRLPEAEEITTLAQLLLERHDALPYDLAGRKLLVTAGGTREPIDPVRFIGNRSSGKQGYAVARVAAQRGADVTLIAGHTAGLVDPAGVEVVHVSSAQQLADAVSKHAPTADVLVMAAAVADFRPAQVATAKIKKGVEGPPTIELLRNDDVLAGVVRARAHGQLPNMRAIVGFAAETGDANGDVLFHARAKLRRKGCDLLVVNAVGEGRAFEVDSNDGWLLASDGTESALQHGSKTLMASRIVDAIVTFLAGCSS
UniProt P9WFT3, whole entry: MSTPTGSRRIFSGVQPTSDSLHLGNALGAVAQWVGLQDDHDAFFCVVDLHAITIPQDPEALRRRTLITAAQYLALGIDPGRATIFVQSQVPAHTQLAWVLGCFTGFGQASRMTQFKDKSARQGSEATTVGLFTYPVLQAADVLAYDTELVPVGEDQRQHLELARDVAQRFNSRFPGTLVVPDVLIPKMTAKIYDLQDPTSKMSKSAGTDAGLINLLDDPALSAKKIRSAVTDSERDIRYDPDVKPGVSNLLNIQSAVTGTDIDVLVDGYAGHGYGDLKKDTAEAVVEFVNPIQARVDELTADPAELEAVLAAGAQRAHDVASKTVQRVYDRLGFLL
UniProt A4I591, 1-473: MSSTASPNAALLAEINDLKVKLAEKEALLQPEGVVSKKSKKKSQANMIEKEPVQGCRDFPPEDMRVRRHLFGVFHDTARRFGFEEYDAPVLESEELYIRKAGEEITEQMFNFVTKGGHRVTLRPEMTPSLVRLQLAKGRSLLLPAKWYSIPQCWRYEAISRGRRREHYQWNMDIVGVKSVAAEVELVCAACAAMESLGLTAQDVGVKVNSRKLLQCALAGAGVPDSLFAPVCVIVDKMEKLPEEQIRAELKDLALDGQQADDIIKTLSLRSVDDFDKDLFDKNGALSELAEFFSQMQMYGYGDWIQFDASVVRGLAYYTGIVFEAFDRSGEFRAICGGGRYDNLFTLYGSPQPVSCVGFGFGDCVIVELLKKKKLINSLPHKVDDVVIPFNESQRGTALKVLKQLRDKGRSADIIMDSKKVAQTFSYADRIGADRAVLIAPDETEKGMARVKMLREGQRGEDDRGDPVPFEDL
UniProt Q4DA54, 1-478: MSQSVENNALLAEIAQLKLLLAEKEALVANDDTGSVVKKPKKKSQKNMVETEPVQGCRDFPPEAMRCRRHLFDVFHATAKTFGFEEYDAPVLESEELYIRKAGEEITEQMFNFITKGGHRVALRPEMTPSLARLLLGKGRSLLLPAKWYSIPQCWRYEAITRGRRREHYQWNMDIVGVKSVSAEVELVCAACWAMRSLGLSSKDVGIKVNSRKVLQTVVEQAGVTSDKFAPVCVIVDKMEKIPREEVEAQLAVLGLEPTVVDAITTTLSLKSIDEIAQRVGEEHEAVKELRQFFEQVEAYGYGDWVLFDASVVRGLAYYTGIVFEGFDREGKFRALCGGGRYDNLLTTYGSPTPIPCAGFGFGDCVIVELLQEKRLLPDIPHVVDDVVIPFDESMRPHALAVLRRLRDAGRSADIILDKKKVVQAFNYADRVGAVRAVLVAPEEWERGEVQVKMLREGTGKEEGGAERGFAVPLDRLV

The values are deposited in ChEMBL (CHEMBL3988442, “University of Dundee, Small-Polar-MMV Screening Library” (2021)).

Pks13 thioesterase: 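Enzyme assay of the thioesterase domain of polyketide synthase 13; the read-out is not stated. Target: Polyketide synthase Pks13, Mycobacterium tuberculosis (UniProt I6X8D2). Compounds at 30 µM. Higher reads as stronger inhibition (inferred from which compounds were picked for retests). Size under these conditions: about 67,000 compounds, about 300 of them at 50% or above in at least one test.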
Toxoplasma: 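Assay of Toxoplasma gondii numbers, read through their beta-galactosidase reporter with a colour substrate. Concentration: 10 µM. Higher reads as fewer parasites (inferred from which compounds were picked for retests). About 67,000 compounds were tested under these conditions; 0.38% (about 260) showed 50% or more at least once.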
CoaBC: 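Coenzyme A biosynthesis protein CoaBC, Mycobacterium tuberculosis (UniProt P9WNZ1). Enzyme assay of CoaBC with a phosphate dye (Biomol Green) read at 650 nm. Concentration: 30 µM. Direction is inferred from only a few compounds that gave an IC50; most scored high, so higher reads as stronger inhibition. Most strong results did not repeat in a second test. Size under these conditions: about 67,000 compounds, about 40 of them at 50% or above in at least one test.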
MtTrpRS: 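Enzyme assay of tryptophanyl-tRNA synthetase; the read-out is not stated. Target: Tryptophan-tRNA ligase, Mycobacterium tuberculosis (UniProt P9WFT3). Concentration: 10 µM. Higher most likely means stronger inhibition; the record gives no direction and few retests gave an IC50. Size under these conditions: about 65,000 compounds, about 64 of them at 50% or above in at least one test.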
LiHisRS: 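Enzyme assay of histidyl-tRNA synthetase; the read-out is not stated. Target: Histidine-tRNA ligase, Leishmania infantum (UniProt A4I591). Concentration: 30 µM. Direction is inferred from retests: higher values go with stronger inhibition. The assay is labelled LdHisRS but filed under L. infantum. Of about 69,000 compounds tested this way, about 410 (0.6%) reached 50% or more in at least one test.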
TcHisRS: 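Enzyme assay of histidyl-tRNA synthetase; the read-out is not stated. Target: Histidine-tRNA ligase, Trypanosoma cruzi CL Brener (UniProt Q4DA54). Tested at 30 µM. Direction is inferred from retests: higher values go with stronger inhibition. Size under these conditions: about 69,000 compounds, about 31 of them at 50% or above in at least one test.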

The filed quantity is “Percent Effect” (%). How 0% and 100% were set is not recorded. Most values in the screen are low, and negative values occur. Compounds were drawn at random from those tested, without regard to their results.

compound: CN1CCN(Cc2ccc(-c3ccc(C(N)=O)cc3)nc2)CC1
Pks13 thioesterase: -11.71
Toxoplasma: 25.38
CoaBC: 2.81
MtTrpRS: -3.832
LiHisRS: 15.58
TcHisRS: 4.848

compound: CN(C)c1ccc(C(=O)N2CCC(c3n[nH]c(C4CC4)n3)CC2)cc1
Pks13 thioesterase: -9.253
Toxoplasma: -8.208
CoaBC: 3.435
MtTrpRS: -4.984
LiHisRS: 4.348
TcHisRS: 2.817

compound: CN(C)c1ncc(I)c(C2CCCCN2C)n1 (stereo unspecified)
Pks13 thioesterase: -3.072
Toxoplasma: 1.412
CoaBC: 8.252
MtTrpRS: 2.185
LiHisRS: 12.86
TcHisRS: 6.513

compound: COc1cc(OC)cc(C(=O)Nc2ncnc3c2CCC3)c1
Pks13 thioesterase: 18.85
Toxoplasma: -1.371
CoaBC: 5.051
MtTrpRS: 4.25
LiHisRS: 19.35
TcHisRS: 6.736

compound: CC(C(=O)NC1(C#N)CCCCC1)N1CCc2c(ncn2C)C1 (stereo unspecified)
Pks13 thioesterase: -22.11
Toxoplasma: 12.99
CoaBC: 5.031
MtTrpRS: -1.563
LiHisRS: 17.65
TcHisRS: 13.58

compound: Cc1nnc(NC(=O)CN2CCc3nn(C)c(=O)cc3C2)s1
Pks13 thioesterase: -7.782
Toxoplasma: -38.71
CoaBC: -3.106
MtTrpRS: 15.66
LiHisRS: 9.615
TcHisRS: 1.143

compound: O=C(c1cnn2c1OCCC2)N1CCN(C(=O)C2CCCO2)CC1 (stereo unspecified)
Pks13 thioesterase: 7.054
Toxoplasma: -60.41
CoaBC: 1.083
MtTrpRS: 1.174
LiHisRS: 4.494
TcHisRS: 5.528

compound: CN(C)[C@@H]1CCN(S(C)(=O)=O)[C@H]1Cc1ccccc1
Pks13 thioesterase: 12.78
Toxoplasma: 9.455
CoaBC: 1.22
LiHisRS: 11.32
TcHisRS: 7.778

compound: CC(C)c1nccn1C1CCCN(C(=O)c2ccn(C)c(=O)c2)C1 (stereo unspecified)
Pks13 thioesterase: -22.56
Toxoplasma: 1.314
CoaBC: -1.518
MtTrpRS: 2.999
LiHisRS: 9.375
TcHisRS: 5.319

compound: O=C(c1ccccn1)N1CCC(Nc2cccnn2)CC1
Pks13 thioesterase: 2.11
Toxoplasma: 1.571
CoaBC: -6.105
MtTrpRS: -4.617
LiHisRS: 7.547
TcHisRS: 4.167

compound: CN(CC(=O)NCCCOc1ccc(F)cc1)c1ccc(C#N)cn1
Pks13 thioesterase: 14.62
Toxoplasma: 13.91
CoaBC: -1.399
MtTrpRS: -0.8909
LiHisRS: 17.07
TcHisRS: 11.06

compound: CN(C1CCN(C(=O)NCCc2ccc(F)cc2F)CC1)S(C)(=O)=O
Pks13 thioesterase: -7.634
Toxoplasma: 17.12
CoaBC: -0.1211
MtTrpRS: 3.11
LiHisRS: 1.087
TcHisRS: 1.98

compound: Cc1ccc(CS(=O)(=O)CC(=O)NCc2ccccc2F)cc1
Pks13 thioesterase: -5.809
Toxoplasma: 7.029
CoaBC: 4.878
MtTrpRS: 1.505
LiHisRS: 12.8
TcHisRS: -15.69

compound: Cn1c(=O)c2cc(C(=O)NCc3ccncc3)ccc2n(C)c1=O
Pks13 thioesterase: 10.06
Toxoplasma: 5.175
CoaBC: -8.466
LiHisRS: 18.56
TcHisRS: 5.78

compound: O=C(O)C(F)(F)F.c1coc(CN2CCCn3c(nnc3Cn3cccc3)C2)c1
Toxoplasma: 13.91

compound: CC(=O)N1CCN(C(=O)CN(C)c2ccc(Cl)cn2)CC1
Pks13 thioesterase: -26
Toxoplasma: 4.894
CoaBC: 0.4592
MtTrpRS: 6.144
LiHisRS: 18.37
TcHisRS: 11.28

compound: COCCN(C)C[C@@H]1CN(C(=O)c2ccc3c(c2)OCO3)C[C@@H]1CO
Pks13 thioesterase: -13.76
Toxoplasma: 11.44
CoaBC: 1.564
MtTrpRS: 9.685
LiHisRS: 6.742
TcHisRS: 1.508

compound: CCN(CC)C(=O)NC(C)c1ccc(Oc2cccnc2)c(F)c1 (stereo unspecified)
Pks13 thioesterase: -16.96
CoaBC: -3.767
MtTrpRS: -1.286
LiHisRS: -2.174
TcHisRS: 1.98

compound: Fc1ccccc1CN1C[C@@H]2CN(Cc3cccnc3)CCO[C@@H]2C1
Pks13 thioesterase: -33.21
CoaBC: 5.691
MtTrpRS: 0.7333
LiHisRS: 15.97
TcHisRS: 4.902

compound: CN1CCCN(S(=O)(=O)c2cn(C)cn2)c2cc(F)ccc21
Pks13 thioesterase: -11.03
Toxoplasma: 1.431
CoaBC: 7.231
MtTrpRS: -1.04
LiHisRS: 16.44
TcHisRS: 9.524

compound: Cc1cccc(NS(=O)(=O)c2ccc(C#N)nc2)c1C#N
Pks13 thioesterase: -8.58
Toxoplasma: 4.906
CoaBC: 9.611
MtTrpRS: 0.1638
LiHisRS: 7.042
TcHisRS: 6.077

compound: COCCN1CCN(Cc2ccc(Cl)cc2)[C@H]2CS(=O)(=O)C[C@H]21
Pks13 thioesterase: -9.568
CoaBC: -7.54
MtTrpRS: -3.645
LiHisRS: 22.22
TcHisRS: 7.143

compound: CCC(O)c1nc2c([nH]1)CC(C)(C)CNC2=O (stereo unspecified)
Pks13 thioesterase: -21.65
CoaBC: -1.823
MtTrpRS: 0.3215
LiHisRS: 4.348
TcHisRS: -8.911

compound: CC(C)(C)CN(CCC#N)C(=O)c1cccc(CN2CCCC2)c1
Pks13 thioesterase: -7.58
Toxoplasma: 4.076
CoaBC: -0.8805
MtTrpRS: -0.4082
LiHisRS: 12.39
TcHisRS: 5.357

compound: COc1ccc(-c2ccncc2)cc1CNC1CCCC1
Pks13 thioesterase: -23.46
Toxoplasma: 2.147
CoaBC: 0.4032
MtTrpRS: 0.5198
LiHisRS: 15.79
TcHisRS: 5.028

compound: COC(=O)[C@@H]1Cc2ncn(C)c2CN1S(=O)(=O)c1ccc(OC)cc1
Pks13 thioesterase: -12.03
Toxoplasma: -6.42
CoaBC: 1.768
MtTrpRS: 0.839
LiHisRS: 27.03
TcHisRS: -2.488

2 of the entries, repeated:

- O=C(O)C(F)(F)F.c1coc(CN2CCCn3c(nnc3Cn3cccc3)C2)c1 | Toxoplasma: 13.91%
- COC(=O)[C@@H]1Cc2ncn(C)c2CN1S(=O)(=O)c1ccc(OC)cc1 | Pks13 thioesterase: -12.03%; Toxoplasma: -6.42%; CoaBC: 1.768%; MtTrpRS: 0.839%; LiHisRS: 27.03%; TcHisRS: -2.488%